Construct, isoform or probe ends are uncertain for at least one entry. A negative result means that nothing was seen under these conditions. For some of these results: Where a protein sequence is shown, tags need not be part of it.
Tests used:
Experiment in all cases: EMSA
[1] = biological target: GST-JDP2 FL34R (ZIP mutant) (mouse) (UniProt P97875); conditions: EMSA: 5 ug GST fusion or 10 ng IVT protein, 25 C 30 min; 5% native PAGE in 0.5x TBE at 4 C; binding buffer, salt and pH not given; recombinant protein; protein details: GST
GST-JDP2 NT102 (mouse) = GST-JDP2 NT102 (mouse) (UniProt P97875); conditions: EMSA: 5 ug GST fusion or 10 ng IVT protein, 25 C 30 min; 5% native PAGE in 0.5x TBE at 4 C; binding buffer, salt and pH not given; recombinant protein; protein details: GST
GST-JDP2 NT70 (mouse) = GST-JDP2 NT70 (mouse) (UniProt P97875); conditions: EMSA: 5 ug GST fusion or 10 ng IVT protein, 25 C 30 min; 5% native PAGE in 0.5x TBE at 4 C; binding buffer, salt and pH not given; recombinant protein; protein details: GST
IVT-Nrf2 = biological target: T1, IVT-Nrf2 (UniProt Q60795); conditions: Nrf2 alone; EMSA: 5 ug GST fusion or 10 ng IVT protein, 25 C 30 min; 5% native PAGE in 0.5x TBE at 4 C; binding buffer, salt and pH not given; protein translated in vitro
T1 sequence (looked up, limits assumed): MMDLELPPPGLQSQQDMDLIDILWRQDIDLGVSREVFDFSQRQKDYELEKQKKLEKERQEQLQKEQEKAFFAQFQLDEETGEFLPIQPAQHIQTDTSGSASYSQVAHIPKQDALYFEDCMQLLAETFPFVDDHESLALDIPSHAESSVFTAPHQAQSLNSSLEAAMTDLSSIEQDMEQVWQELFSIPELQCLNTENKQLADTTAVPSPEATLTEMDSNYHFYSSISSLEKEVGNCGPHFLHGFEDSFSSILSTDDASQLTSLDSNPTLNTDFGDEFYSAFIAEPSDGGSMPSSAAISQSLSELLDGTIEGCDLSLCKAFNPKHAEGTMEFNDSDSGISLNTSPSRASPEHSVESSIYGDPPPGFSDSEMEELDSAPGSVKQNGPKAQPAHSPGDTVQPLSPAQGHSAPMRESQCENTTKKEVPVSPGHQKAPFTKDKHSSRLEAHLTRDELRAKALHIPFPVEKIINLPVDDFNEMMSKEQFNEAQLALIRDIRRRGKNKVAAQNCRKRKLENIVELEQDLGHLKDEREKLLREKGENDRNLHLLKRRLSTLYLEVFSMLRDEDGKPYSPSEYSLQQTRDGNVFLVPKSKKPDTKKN

The chains behind the UniProt entries cited, without tags or fusion partners.
UniProt P97875, whole entry, stated change not applied: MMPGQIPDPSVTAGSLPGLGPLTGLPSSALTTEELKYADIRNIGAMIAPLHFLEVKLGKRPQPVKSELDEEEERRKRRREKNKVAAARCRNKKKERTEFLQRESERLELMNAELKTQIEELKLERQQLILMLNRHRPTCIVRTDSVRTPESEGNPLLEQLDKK

Measured: binding result

CAGTCACAGTGACTCAGCAGAATCT (double strand) [human NQO1-ARE WT]
no binding: all assays above

Source: paper PMC3847324, “Jun dimerization protein 2 is a critical component of the Nrf2/MafK complex regulating the response to ROS homeostasis”
